Test results: PubChem BioAssay AID504847 (National Center for Advancing Translational Sciences (NCATS), 2011)
“And” between values parts separate entries of the source, which are not always exact repeats. Equal values may be shown once. Among all 400,000 compounds or so, about 3,700 (0.93%) were called active. The shares of active, inactive and inconclusive entries below differ from those in the screen. Calls come from the whole dose curve; as a rule, active = well fitted inhibition curve with a large enough effect; inconclusive = small, poorly fitted or top-dose-only effect, or another doubt; inactive = no such curve, though single readings can be large or run the other way. Potencies of inconclusive entries are doubtful fits and often do not repeat.

Amino acid sequences for entries named in this document (tags omitted). A change or cut given only in a name is not applied to a line headed by its entry.
UniProt P11473: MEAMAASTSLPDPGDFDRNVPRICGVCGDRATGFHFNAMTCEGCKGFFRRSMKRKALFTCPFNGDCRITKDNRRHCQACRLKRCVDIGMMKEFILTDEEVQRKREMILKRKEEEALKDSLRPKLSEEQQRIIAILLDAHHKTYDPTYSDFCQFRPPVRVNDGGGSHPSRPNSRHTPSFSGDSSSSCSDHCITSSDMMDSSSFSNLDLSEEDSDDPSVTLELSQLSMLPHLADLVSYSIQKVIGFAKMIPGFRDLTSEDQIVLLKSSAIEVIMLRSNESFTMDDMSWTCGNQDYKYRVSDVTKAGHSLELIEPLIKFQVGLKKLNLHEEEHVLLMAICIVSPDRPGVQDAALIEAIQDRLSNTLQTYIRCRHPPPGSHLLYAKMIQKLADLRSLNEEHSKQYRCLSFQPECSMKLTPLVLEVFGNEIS

Target: Vitamin D3 receptor (Homo sapiens) (UniProt P11473)
Experiment: Inhibitors of the vitamin D receptor (VDR): qHTS
Settings: VDR-SRC2-3 peptide fluorescence polarization, 2 h; max response, negative = inhibition: hits give low values
In short: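 Inhibition of the VDR/SRC2-3 peptide interaction is quantified by fluorescence polarization. Compounds (23 nl, pintool) incubate with the reagents for 2 hours at ambient room temperature.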
% is set by controls: 0 for no effect and ±100 for the full control effect; potency is the fitted concentration of half-maximal effect.

Potency, active:
Cc1cccc(C(=O)Nc2ccc(C(=O)/C=C/c3ccncc3)cc2)c1 15.8 µM
CC(C)CC(NC(=O)CC12CC3CC(CC(C3)C1)C2)C(=O)NC1=NCCS1 (stereo not given) 70.8 µM
Cc1ccc(N2C(S)=C(C#N)C(=O)NC2c2ccco2)cc1 (stereo not given) 39.8 µM
CC1=NN(c2ccccc2)C(=O)/C1=C/c1cccs1 79.4 µM
O=C(Nc1nc(=O)n(C(=O)c2cccc(C(F)(F)F)c2)s1)c1ccccc1 14.1 µM
O=C(CCSC1=NCCCN1)c1ccc(F)cc1 70.8 µM
Cc1cc(C)nc(/N=C2\NC(=O)CC(C(=O)O)N2c2ccc(C)c(C)c2)n1 (stereo not given) 50.1 µM
CCCOc1ccc(Cl)cc1/C=C1/C(=O)ON=C1C 25.1 µM
N#Cc1c(Nc2ccc(Cl)cc2)s[nH]c1=O 10 µM
C/C(CC1CC2=C(CC1(C)C)C(C)(C)CCC2)=N\NC(N)=S (stereo not given) 79.4 µM
CC(=O)NC1Sc2ccccc2N=C1c1ccccc1 (stereo not given) 79.4 µM
COc1cc(/C=N/N=C2/SCC(=O)N2c2ccc(O)cc2)ccc1O 17.8 µM
CCCCS(=O)(=O)c1oc(-c2cccs2)nc1S(=O)(=O)c1ccc(F)cc1 10 µM
Cc1ccc(S(=O)(=O)CCNC(=O)Cc2ccccc2)cc1 56.2 µM
CCCc1cc(C(=O)Nc2sc3c(c2C#N)CCC3)no1 70.8 µM
CCCCC1(Br)C(=O)N(c2ccccc2)N(c2ccccc2)C1=O 70.8 µM

Potency, inconclusive:
CCC(=O)OC1(C)C(=O)C=C2C=C(CCCC(=O)OC)OC=C2C1=O (stereo not given) 28.2 µM [inhibitor, full curve, poor fit]
CC(c1n[nH]c(=S)n1Cc1ccccc1)N(C)C (stereo not given) 79.4 µM [inhibitor, single point]
N#CC(C#N)=C1C(=O)N(CCN2CCOCC2)c2ccccc21 89.1 µM [inhibitor, single point]
O=Nc1c(O)n(Cc2c(Cl)cccc2Cl)c2ccccc12 89.1 µM [inhibitor, single point]
CCCSC1=N/C(=C\C=C\c2ccco2)C(=O)S1 100 µM [inhibitor, single point]
CCOC(=O)N1CCN(C(=O)COC(=O)c2ccc(Cl)nc2)CC1 56.2 µM [inhibitor, partial curve]
N#Cc1ccc(CC(=O)c2ccccc2)[nH]c1=O 89.1 µM [inhibitor, single point]
CCc1ccc(CNC(=O)Cn2nc(-c3ccc(Cl)cc3)ccc2=O)cc1 4.47 µM [inhibitor, full curve, poor fit]
COc1ccc(NC(=O)Nc2cccc(C)n2)cc1 17.8 µM [inhibitor, partial curve, poor fit]
CCOC(=O)[C@H]1[C@H]2COc3ccc(C)cc3[C@@H]2N2C(=O)c3cc(C)ccc3NC(=O)[C@@]12C 100 µM [inhibitor, partial curve, poor fit]
CCc1c(C)nc2ncnn2c1N1CCC(C(=O)NCc2cccc(OC)c2)CC1 39.8 µM [inhibitor, full curve, poor fit]
CCCCn1c(N)c(N(CCOC)C(=O)CSCc2ccc(Cl)c(Cl)c2)c(=O)[nH]c1=O 89.1 µM [inhibitor, single point]
COc1ccc(NC(=O)CSc2nnc(-c3ccccc3C)n2N)cc1 89.1 µM [inhibitor, single point]
O=C(c1cc(=O)[nH]c2ccccc12)N1CCN(c2cccc(C(F)(F)F)c2)CC1 79.4 µM [inhibitor, single point]
Cc1ccn(C(=O)c2ccc(NC(=O)C3CC3)cc2)n1 89.1 µM [inhibitor, single point]
C=CCn1c(C)cc(C(=O)COC(=O)c2ccc(N)c([N+](=O)[O-])c2)c1C 89.1 µM [inhibitor, single point]
Cc1cc(SCC(=O)NC(=O)c2cccn2C)nc2ccccc12 89.1 µM [inhibitor, single point]
N#C/C(=C\c1coc2ccccc2c1=O)C(N)=S 89.1 µM [inhibitor, single point]
COCCNC(=O)C(c1ccco1)N(C(=O)Cn1nnc2ccccc21)c1cc(C)ccc1C (stereo not given) 7.08 µM [inhibitor, single point]
[O-][N+]1=c2ccc(Nc3ccccc3)cc2=NC12CCCCC2 70.8 µM [inhibitor, single point]
Cc1cc(NC(=O)Nc2ccccc2[N+](=O)[O-])no1 35.5 µM [inhibitor, single point]
CN(C)c1ccc(C=Nc2ccc(N(C)C)cc2)cc1 1.12 µM [inhibitor, full curve, poor fit]
Oc1ccc(/C=N/Nc2ccc3ccccc3c2)c(O)c1 79.4 µM [inhibitor, single point]
Cc1[nH]c(=S)c(C#N)c(C)c1Cc1ccccc1 89.1 µM [inhibitor, single point]
Cn1cnc([N+](=O)[O-])c1Oc1cccc(O)c1 89.1 µM [inhibitor, single point]
CC(C)Nc1nnc(SCC(=O)N2CCN(C(=O)c3ccco3)CC2)s1 89.1 µM [inhibitor, single point]
O=C(NCc1ccc(Cl)cc1)c1ccc2nc[nH]c2c1 14.1 µM [inhibitor, partial curve, poor fit]
CCc1c(C)[nH]c(=S)c(C#N)c1C 79.4 µM [inhibitor, single point]
CCOc1ccc(NC(=O)c2c(NCc3cccnc3)sc3c2CCC(C)C3)cc1 (stereo not given) 35.5 µM [inhibitor, single point]
CCCCC1=CC2=C(OC(C)=O)C(=O)C(C)(OC(=O)c3ccc(Cl)nc3)C(=O)C2=CO1 (stereo not given) 50.1 µM [inhibitor, partial curve]
CSCSC1=C(C#N)C(c2ccccc2Cl)C(C(C)=O)=C(C)N1 (stereo not given) 89.1 µM [inhibitor, single point]
NC(=O)c1c(-c2cccs2)csc1N 70.8 µM [inhibitor, partial curve, poor fit]
COC(=O)CCCCC1SCC2NC(=O)NC21O (stereo not given) 56.2 µM [inhibitor, partial curve, poor fit]
Cc1cc(C)cc(Oc2nc3ccccn3c(=O)c2/C=C(\C#N)C(=O)NC2CCS(=O)(=O)C2)c1 (stereo not given) 56.2 µM [inhibitor, partial curve, poor fit]

An excerpt from further up, for reference:
Potency, inconclusive:
CCc1c(C)[nH]c(=S)c(C#N)c1C 79.4 µM [inhibitor, single point]
CCOc1ccc(NC(=O)c2c(NCc3cccnc3)sc3c2CCC(C)C3)cc1 (stereo not given) 35.5 µM [inhibitor, single point]
CCCCC1=CC2=C(OC(C)=O)C(=O)C(C)(OC(=O)c3ccc(Cl)nc3)C(=O)C2=CO1 (stereo not given) 50.1 µM [inhibitor, partial curve]
CSCSC1=C(C#N)C(c2ccccc2Cl)C(C(C)=O)=C(C)N1 (stereo not given) 89.1 µM [inhibitor, single point]
NC(=O)c1c(-c2cccs2)csc1N 70.8 µM [inhibitor, partial curve, poor fit]
COC(=O)CCCCC1SCC2NC(=O)NC21O (stereo not given) 56.2 µM [inhibitor, partial curve, poor fit]

Following part:

Max response, negative = inhibition, inactive:
CCC(=O)OC1(C)C(=O)C=C2C=C(CCCC(=O)OC)OC=C2C1=O (stereo not given) -5.48%
CCc1cccc(NC(=O)Cc2ccc(OC)c(OC)c2)c1 -4.01%
O=c1cc(-c2ccco2)oc2ccc(Cl)cc12 -7.35%
CN1CCN(c2nc3c(c(=O)[nH]c(=O)n3C)n2CCCSc2nnnn2-c2ccccc2)CC1 -11.1%
NC(=O)c1ncn([C@@H]2O[C@H](CNC(=O)[C@H](N)CSCc3ccccc3)[C@@H](O)[C@H]2O)n1 -16.2%
Nc1nc(SCC(=O)Nc2ccc(Cl)cn2)n[nH]1 -6.45%
Cc1ccccc1Cn1nnc2sc3c(c2c1=O)CCCC3 -3.45%
COc1ccc(Oc2ncc3nc(-c4ccc(Cl)cc4)c(=O)n(CCC#N)c3n2)cc1 2.2%
COc1ccc(NC(=O)c2nc[nH]c2C(=O)N(C)Cc2ccccc2)cc1 2.6%
COc1ccc2[nH]c(C)c(CCNC(=S)Nc3cc(C)cc(C)c3)c2c1 1.63%
CCC(C)(C)C1CCc2[nH]nc(C(=O)NCCCNC(=O)OC(C)(C)C)c2C1 (stereo not given) -14.3%
Cc1cccc(-n2c(N)cc(=O)nc2SCC(=O)Nc2ccc(F)cc2)c1C 6.31%
Cn1nc(-c2ccncc2)nc2c(=O)n(C)c(=O)nc1-2 -8.13%
Cc1ccc(/C=C/C(=O)O)cc1S(=O)(=O)NCCCO 4.96%
Cc1c(C(=O)N2CCN(c3ccc(F)cc3)CC2)sc2nc3n(c(=O)c12)CCC3 13.8% and -14%
CCOc1ccc(CNC(=O)Cn2ccc3cc(S(=O)(=O)N4CCCC4)ccc32)cc1 -13.6%
CCn1c(CSc2nc3ccccc3s2)n[nH]c1=S 10.4%
O=C(Cc1ccc(Cl)cc1)Nc1ccccc1N1CCN(C(=O)c2ccccc2)CC1 0.118%
N/C(Cc1ccc([N+](=O)[O-])cc1)=N\OC(=O)C(c1ccccc1)c1ccccc1 -4.39%
O=C(NNC(=S)Nc1ccccc1)c1ccc(O)cc1 -14.8%
NS(=O)(=O)c1cccc(NS(=O)(=O)c2ccc(/C=C/C(=O)OCC(=O)c3ccc(Br)cc3)cc2)c1 4.91%
CCOC(=O)c1c(Nc2ccc(O)cc2)nnc(-c2ccccc2)c1-c1ccccc1 -13.7%
C[C@H](NC(=O)CCn1nnc2ccccc2c1=O)C(=O)O -22.3%
O=C(COc1ccccc1)NC1CCSc2ccccc21 (stereo not given) 8.4%
Cc1ccc(SCC(=O)Nc2ccc(N3CCOCC3)cc2)cc1 -18.1%
